Measurements from PubChem BioAssay AID2517 (National Center for Advancing Translational Sciences (NCATS), 2010).
About 1,200 (0.34%) of roughly 350,000 compounds were called active. Inconclusive results, whose numbers are uncertain, are shown with a selection of clear calls. Calls come from the whole dose curve; as a rule, active = well fitted inhibition curve with a large enough effect; inconclusive = small, poorly fitted or top-dose-only effect; inactive = no such curve, though single readings can be large or run the other way. A potency beside an inconclusive call is a rough fit, not a confirmed value.

Chains of the proteins cited; added tags and fusions are not shown.
UniProt P27695, whole entry, looked up: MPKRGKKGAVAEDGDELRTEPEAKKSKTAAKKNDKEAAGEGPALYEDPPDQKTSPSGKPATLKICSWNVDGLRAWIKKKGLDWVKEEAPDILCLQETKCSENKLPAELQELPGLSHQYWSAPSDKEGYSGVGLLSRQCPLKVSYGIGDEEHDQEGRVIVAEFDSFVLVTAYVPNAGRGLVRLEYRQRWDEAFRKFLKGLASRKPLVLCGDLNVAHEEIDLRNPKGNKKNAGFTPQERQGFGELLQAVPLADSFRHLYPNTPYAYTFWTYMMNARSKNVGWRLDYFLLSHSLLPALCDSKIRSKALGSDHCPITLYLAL

Target: DNA repair nuclease/redox regulator APEX1 (Homo sapiens) (UniProt P27695)
Test: qHTS Assay for Inhibitors of the Human Apurinic/apyrimidinic Endonuclease 1 (APE1); note: nearly all actives have a fitted effect of over 55% in size
Details: recombinant APE1, TAMRA/BHQ-2 abasic DNA cleavage fluorescence; series mostly up to 65.8 µM
How it was run: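 Endonuclease cleavage of a quenched abasic-site DNA duplex (50 nM) by APE1 (0.75 nM) was tracked by TAMRA dequenching. Compounds were preincubated with enzyme 15 min at room temperature; data normalized to buffer-only and DMSO wells plus NSC13755 control.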
Potency is the fitted concentration of half-maximal effect.

SMILES	Potency
CN(C)c1ccc(C2CC(=O)OC3=C2C(=O)CC(C)(C)C3)cc1 (stereo not given)	inconclusive: 0.0708 µM [inhibitor, full curve, poor fit]
Cc1noc(C(=O)Nc2cccc(Cl)c2)c1Cl	inconclusive: 6.7 µM [inhibitor, single point]
COc1cc([N+](=O)[O-])ccc1NC(=O)CCCOc1ccc(C)cc1	inconclusive: 3.98 µM [inhibitor, partial curve]
O=C(N/N=C/C(Cl)=C/c1ccc([N+](=O)[O-])cc1)C(=O)Nc1ccccc1C(=O)O	inconclusive: 17.8 µM [inhibitor, single point]
Cc1noc(C)c1-c1cc(NC2CCNCC2)ncn1	inactive
CCOC(=O)N1CCN(c2ccc(F)cc2[N+](=O)[O-])CC1	inconclusive: 0.251 µM [inhibitor, partial curve, poor fit]
CCn1nc(NC(=O)Cc2ccc(OC)cc2)c2cc3cc(C)ccc3nc21	inconclusive: 5.01 µM [inhibitor, single point]
O=C(COC(=O)/C=C/c1ccco1)Nc1ccc(F)cc1Cl	inconclusive: 31.6 µM [inhibitor, single point]
Cc1ccc2occ(/C=N/NC(N)=S)c(=O)c2c1	inactive
Cc1cc(C(=O)COC(=O)c2ccco2)c(C)n1Cc1ccco1	inconclusive: 17.8 µM [inhibitor, partial curve]
N/C(=N\OC(=O)CCCc1ccccc1)c1cccc([N+](=O)[O-])c1	inconclusive: 50.1 µM [inhibitor, partial curve, poor fit]
Oc1cc2c(cc1O)C(c1ccccc1)CNCC2 (stereo not given)	inactive
CC(=O)Oc1ccc2c(c1)O/C(=C\c1ccncc1)C2=O	inactive
COC(=O)N/N=C/c1cc(Br)ccc1O	inactive
COc1ccc(N2CC(C(=O)Nc3ccc(S(=O)(=O)Nc4nccs4)cc3)CC2=O)cc1 (stereo not given)	inconclusive: 0.251 µM [inhibitor, full curve, poor fit]
CC(C)Oc1cccc(-c2nnc(SCC(=O)Nc3ccc4c(c3)OCCO4)n2N)c1	inactive
COC(=O)[C@H]1C[C@@H]1[C@H](NC(C)=O)c1ccccc1	inconclusive: 5.01 µM [inhibitor, single point]
Cc1cc(C)cc(-n2c(C)nc3cc(C(=O)O)ccc32)c1	inconclusive: 28.2 µM [inhibitor, single point]
FC(F)(F)c1ccccc1-c1nc(N2CCOCC2)c2ccccc2n1	active: 25.1 µM
Cc1nc(-c2ccc(S(=O)(=O)NCC3CCN(C(=O)OC(C)(C)C)CC3)s2)cs1	inconclusive: 39.8 µM [inhibitor, single point]
O=C(O)c1nn(-c2ccccc2-c2n[nH]c(=O)[nH]c2=O)c(=O)[nH]c1=O	inconclusive: 44.7 µM [inhibitor, single point]
CCc1ccccc1NC(=O)CSc1nc2n[nH]c(C)c2c(=N)n1-c1ccc(OC)cc1	inactive
COc1ccc(-c2cnn3c(N)c(S(=O)(=O)C(C)(C)C)cnc23)cc1	inconclusive: 39.8 µM [inhibitor, single point]
CSc1nc2sc3c(c2c(=O)[nH]1)CCc1ccccc1-3	inconclusive: 39.8 µM [inhibitor, single point]

SMILES	Potency
O=C(c1ccc2c(=O)n(CC3CCCO3)c(=S)[nH]c2c1)N1CCN(c2ccccc2)CC1 (stereo not given)	inactive
Cc1cc(C)cc(OCCCCCNCCO)c1	inconclusive: 3.16 µM [inhibitor, single point]
CNS(=O)(=O)c1cccc(C(=O)OCC(=O)c2cc3ccccc3o2)c1	inconclusive: 20 µM [inhibitor, single point]
COc1ccc(Br)cc1C(=O)Nc1cccc2ncccc12	inconclusive: 1.12 µM [inhibitor, full curve, poor fit]
O=C(N/N=C1/C[C@@H](O)[C@@H](O)[C@@H]2[C@@H]3C(=O)N(Cc4ccc5c(c4)OCO5)C(=O)[C@H]3CC[C@H]12)OCc1ccccc1	inconclusive: 3.16 µM [inhibitor, single point]
O=C(NCc1ccccc1)c1cc2ccc(O)cc2oc1=O	inactive
COc1cccc(CNC(=O)c2cc(COc3c(F)cccc3F)on2)c1	inconclusive: 35.5 µM [inhibitor, single point]
CCCCOCCCNCC(=O)Nc1ccc(S(N)(=O)=O)cc1	inconclusive: 44.7 µM [inhibitor, single point]
CC(=O)C1=C(C)NC(SCC(=O)c2ccc(F)cc2)=C(C#N)C1c1ccco1 (stereo not given)	inconclusive: 44.7 µM [inhibitor, single point]
O=C1CNC(=O)/C1=C/c1ccccc1	inconclusive: 22.4 µM [inhibitor, partial curve]
COc1ccccc1CN1CCNC(=O)C1CC(=O)NCCc1cnccn1 (stereo not given)	inconclusive: 0.0032 µM [inhibitor, full curve, poor fit]
O=C(c1cccc2c1-c1ccccc1C2)N1CCCCC1	inconclusive: 12.6 µM [inhibitor, partial curve, poor fit]
CCOC(=O)C1(Cc2cccc(F)c2)CCN(C(=O)c2cscn2)CC1	inconclusive: 44.7 µM [inhibitor, single point]
COc1ccc(NC(=O)c2ccc3c(c2)C(=O)N(Cc2ccncc2)C3=O)cc1S(N)(=O)=O	inactive
COC(=O)c1ccc(OC(=O)c2cccnc2SC)cc1	inactive
Cc1ccc(C)c(S(=O)(=O)Nc2ccc3oc(C)c(C(=O)O)c3c2)c1	active: 13.4 µM
COc1ccccc1-c1nnc(SC(C(=O)c2c[nH]c3ccccc23)c2ccccc2)n1C (stereo not given)	inactive
O=C(CSc1nnnn1-c1ccccc1)c1ccc(O)cc1O	inconclusive: 39.8 µM [inhibitor, single point]
CC1(C)C(=O)Nc2ccccc2N1C(=O)COc1ccc(S(=O)(=O)N2CCOCC2)cc1Cl	inconclusive: 44.7 µM [inhibitor, single point]
Cc1ccc(COC(=O)Cc2coc3cc(O)ccc23)cc1	inactive
COc1ccc([N+](=O)[O-])cc1NC(=O)C(C)OC(=O)c1ccccn1 (stereo not given)	inconclusive: 28.2 µM [inhibitor, single point]
O=C(N/N=C/c1ccc(Br)s1)c1ccc([N+](=O)[O-])cc1	inconclusive: 3.98 µM [inhibitor, partial curve]
C=CCn1c(=NC(=O)c2cc(-c3cccs3)nc3ccccc23)sc2cc(S(N)(=O)=O)ccc21	inconclusive: 39.8 µM [inhibitor, single point]
N#Cc1c(=O)c2nc(NCCCO)ncc2n2c(=O)c3ccccc3[nH]c12	inconclusive: 31.6 µM [inhibitor, partial curve]

SMILES	Potency
O=Cc1ccc(-c2ccccc2C(=O)O)o1	inactive
O=C(Nc1nccs1)c1ccc(S(=O)(=O)N2CCOCC2)cc1	inactive
C=CCC1CCCCC12NC(=O)NC2=O (stereo not given)	inconclusive: 11.2 µM [inhibitor, full curve, poor fit]
CC(=O)N(C)c1nnc(-c2ccccn2)s1	inconclusive: 0.501 µM [inhibitor, full curve, poor fit]
COc1ccc2c(c1)c(=O)oc1cc(OCC(=O)N3CCc4ccccc4C3)ccc12	active: 10 µM
CCOC(=O)c1ccccc1NC(=O)CSc1nc(N)cc(N)n1	inconclusive: 1 µM [inhibitor, full curve]
COc1cccc(OCc2nnc(SCC(=O)NCc3ccco3)n2CCc2ccccc2)c1	inconclusive: 14.1 µM [inhibitor, single point]
NNC(=O)CCN(Cc1ccco1)S(=O)(=O)c1ccc(Cl)cc1	inconclusive: 0.251 µM [inhibitor, full curve, poor fit]
CCOC(=O)C1=C(C)N=c2s/c(=C/c3ccc(OCC(=O)O)cc3)c(=O)n2C1c1ccc(OC)cc1OC (stereo not given)	inconclusive: 26.7 µM [inhibitor, single point]
Cc1ccc(N/C(N)=N/c2nc(CSc3ccccn3)cc(=O)[nH]2)c(C)c1	inactive
CC(C)C1Oc2ccccc2N(CC(=O)NCCCN2C(C)CCCC2C)C1=O (stereo not given)	inactive
Cc1cccc(C(=O)N/C(=C\c2ccc(C)o2)C(=O)O)c1	inconclusive: 3.98 µM [inhibitor, single point]
COc1cc(/C=C(\C#N)c2nc3ccc(C)cc3[nH]2)cc([N+](=O)[O-])c1O	inconclusive: 28.2 µM [inhibitor, single point]
COc1cccc(/C=C2/C(=O)NN(c3ccc(C)c(C)c3)C2=O)c1	inactive
Oc1[nH]c(=S)sc1C=C1N=c2ccccc2=N1	inactive
Cc1ncc(CO)c(/C=N/NC(=O)c2ccc(Br)cc2)c1O	inactive
COc1ccc(N(CC(=O)NCc2ccc(F)cc2)S(=O)(=O)c2c(C)n[nH]c2C)cc1	inconclusive: 37.7 µM [inhibitor, single point]
COc1cc2c(C=O)c3c4c(cc(OC)c(OC)c4c2cc1OC)CCN3C	inconclusive: 35.5 µM [inhibitor, partial curve]
COc1ccccc1NC(C)=O	inactive
c1ccc2c3c(c(CN4CCCCC4)cc2c1)COC3	inconclusive: 44.7 µM [inhibitor, single point]
CC(C)(C)Nc1nc(Oc2ccc(=O)[nH]n2)nc(N2CCOCC2)n1	inconclusive: 1.41 µM [inhibitor, partial curve, poor fit]
N#Cc1c(-c2ccccc2)nc2n(-c3ccccc3)nc(C(=O)Nc3ccccc3)n2c1=O	inconclusive: 56.2 µM [inhibitor, partial curve, poor fit]

17 consecutive records out of the list so far, quoted:
SMILES	Potency
O=C(O)c1nn(-c2ccccc2-c2n[nH]c(=O)[nH]c2=O)c(=O)[nH]c1=O	inconclusive: 44.7 µM [inhibitor, single point]
CCc1ccccc1NC(=O)CSc1nc2n[nH]c(C)c2c(=N)n1-c1ccc(OC)cc1	inactive
COc1ccc(-c2cnn3c(N)c(S(=O)(=O)C(C)(C)C)cnc23)cc1	inconclusive: 39.8 µM [inhibitor, single point]
CSc1nc2sc3c(c2c(=O)[nH]1)CCc1ccccc1-3	inconclusive: 39.8 µM [inhibitor, single point]
O=C(c1ccc2c(=O)n(CC3CCCO3)c(=S)[nH]c2c1)N1CCN(c2ccccc2)CC1 (stereo not given)	inactive
Cc1cc(C)cc(OCCCCCNCCO)c1	inconclusive: 3.16 µM [inhibitor, single point]
CNS(=O)(=O)c1cccc(C(=O)OCC(=O)c2cc3ccccc3o2)c1	inconclusive: 20 µM [inhibitor, single point]
COc1ccc(Br)cc1C(=O)Nc1cccc2ncccc12	inconclusive: 1.12 µM [inhibitor, full curve, poor fit]
O=C(N/N=C1/C[C@@H](O)[C@@H](O)[C@@H]2[C@@H]3C(=O)N(Cc4ccc5c(c4)OCO5)C(=O)[C@H]3CC[C@H]12)OCc1ccccc1	inconclusive: 3.16 µM [inhibitor, single point]
O=C(NCc1ccccc1)c1cc2ccc(O)cc2oc1=O	inactive
COc1cccc(CNC(=O)c2cc(COc3c(F)cccc3F)on2)c1	inconclusive: 35.5 µM [inhibitor, single point]
CCCCOCCCNCC(=O)Nc1ccc(S(N)(=O)=O)cc1	inconclusive: 44.7 µM [inhibitor, single point]
CC(=O)C1=C(C)NC(SCC(=O)c2ccc(F)cc2)=C(C#N)C1c1ccco1 (stereo not given)	inconclusive: 44.7 µM [inhibitor, single point]
O=C1CNC(=O)/C1=C/c1ccccc1	inconclusive: 22.4 µM [inhibitor, partial curve]
COc1ccccc1CN1CCNC(=O)C1CC(=O)NCCc1cnccn1 (stereo not given)	inconclusive: 0.0032 µM [inhibitor, full curve, poor fit]
O=C(c1cccc2c1-c1ccccc1C2)N1CCCCC1	inconclusive: 12.6 µM [inhibitor, partial curve, poor fit]
CCOC(=O)C1(Cc2cccc(F)c2)CCN(C(=O)c2cscn2)CC1	inconclusive: 44.7 µM [inhibitor, single point]
